We go through one molecule from article PMC11142376.

By UniProt entry, the sequences of proteins in these tests, tags left out.
UniProt P55852: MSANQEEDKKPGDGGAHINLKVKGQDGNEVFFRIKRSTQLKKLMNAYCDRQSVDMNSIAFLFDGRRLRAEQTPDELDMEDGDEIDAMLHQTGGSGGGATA
UniProt Q9FLP6: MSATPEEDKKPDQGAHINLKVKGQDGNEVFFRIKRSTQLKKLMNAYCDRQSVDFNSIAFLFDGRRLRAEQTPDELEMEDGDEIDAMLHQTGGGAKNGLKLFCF

Experiment in all cases: two-hybrid; Gal4-based system (Clontech); AD fusions in pGAD424, BD fusions in pGBT8; yeast AH109; growth on -Leu/-Trp/-His minimal medium with 1 or 5 mM 3-AT
Test [1] concerns the target T1, BD-AtSCE1 (SUMO-conjugating E2 enzyme SCE1) (Arabidopsis thaliana) (UniProt Q42551).
T1 sequence: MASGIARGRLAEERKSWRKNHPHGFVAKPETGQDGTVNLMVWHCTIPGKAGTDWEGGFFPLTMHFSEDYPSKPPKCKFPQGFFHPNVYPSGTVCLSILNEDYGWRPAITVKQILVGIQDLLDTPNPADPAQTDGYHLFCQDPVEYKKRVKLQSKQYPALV

The target of test [2] is T2, BD-AtSUMO3 (Arabidopsis thaliana) (UniProt Q9FLP5).
T2 sequence: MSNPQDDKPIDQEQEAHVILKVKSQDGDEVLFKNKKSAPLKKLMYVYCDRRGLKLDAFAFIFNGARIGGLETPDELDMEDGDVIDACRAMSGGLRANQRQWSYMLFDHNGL

The target of test [3] is T3, BD-AtSUMO5 (Arabidopsis thaliana) (UniProt Q8VZI7).
T3 sequence: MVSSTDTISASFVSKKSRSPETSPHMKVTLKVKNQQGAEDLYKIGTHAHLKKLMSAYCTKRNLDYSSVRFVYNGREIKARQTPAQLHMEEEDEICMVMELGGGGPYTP

Test [4] concerns the target BD-AtSUMO1 (Arabidopsis thaliana) (UniProt P55852).
For test [5], the target named is BD-AtSUMO2 (Arabidopsis thaliana) (UniProt Q9FLP6).

These are yes or no findings as the source states them, for the method shown. Some results given as binding are weak or reduced against the parent protein; the word gives no strength. Where a sequence is shown, tags or fusion partners need not be part of it.

B1: AD-SSV3 (SIZ1 splicing variant 3, 884 aa) (enzyme, UniProt Q680Q4 1-884)
chain: MDLEANCKEKLSYFRIKELKDVLTQLGLSKQGKKQELVDRILTLLSDEQAARLLSKKNTVAKEAVAKLVDDTYRKMQVSGASDLASKGQVSSDTSNLKVKGEPEDPFQPEIKVRCVCGNSLETDSMIQCEDPRCHVWQHVGCVILPDKPMDGNPPLPESFYCEICRLTRADPFWVTVAHPLSPVRLTATTIPNDGASTMQSVERTFQITRADKDLLAKPEYDVQAWCMLLNDKVLFRMQWPQYADLQVNGVPVRAINRPGGQLLGVNGRDDGPIITSCIRDGVNRISLSGGDVRIFCFGVRLVKRRTLQQVLNLIPEEGKGETFEDALARVRRCIGGGGGDDNADSDSDIEVVADFFGVNLRCPMSGSRIKVAGRFLPCVHMGCFDLDVFVELNQRSRKWQCPICLKNYSVEHVIVDPYFNRITSKMKHCDEEVTEIEVKPDGSWRVKFKRESERRELGELSQWHAPDGSLCPSAVDIKRKMEMLPVKQEGYSDGPAPLKLGIRKNRNGIWEVSKPNTNGLSSSNRQEKVGYQEKNIIPMSSSATGSGRDGDDASVNQDAIGTFDFVANGMELDSISMNVDSGYNFPDRNQSGEGGNNEVIVLSDSDDENDLVITPGPAYSGCQTDGGLTFPLNPPGIINSYNEDPHSIAGGSSGLGLFNDDDEFDTPLWSFPSETPEAPGFQLFRSDADVSGGLVGLHHHSPLNCSPEINGGYTMAPETSMASVPVVPGSTGRSEANDGLVDNPLAFGRDDPSLQIFLPTKPDASAQSGFKNQADMSNGLRSEDWISLRLGDSASGNHGDPATTNGINSSHQMSTREGSMDTTTETASLLLGMNDSRQDKAKKQRSDNPFSFPRQKRSNNEQDHQTRHRSLNKICIILCAGKN
For B1, the binding result in test [1] is recorded as “binds”; in test [2], “binds weakly”; in test [3], “binds weakly”; in test [4] it was “binds weakly”; in test [5], “binds weakly”.
